These are yes or no findings as the source states them, for the method shown. Binding seen in cells or lysates may run through a third protein. Some binding calls cover weakened binding; strength is not graded here.
Target: T1, MIC60 (human (endogenous in HeLa)) (UniProt Q16891)
T1 sequence: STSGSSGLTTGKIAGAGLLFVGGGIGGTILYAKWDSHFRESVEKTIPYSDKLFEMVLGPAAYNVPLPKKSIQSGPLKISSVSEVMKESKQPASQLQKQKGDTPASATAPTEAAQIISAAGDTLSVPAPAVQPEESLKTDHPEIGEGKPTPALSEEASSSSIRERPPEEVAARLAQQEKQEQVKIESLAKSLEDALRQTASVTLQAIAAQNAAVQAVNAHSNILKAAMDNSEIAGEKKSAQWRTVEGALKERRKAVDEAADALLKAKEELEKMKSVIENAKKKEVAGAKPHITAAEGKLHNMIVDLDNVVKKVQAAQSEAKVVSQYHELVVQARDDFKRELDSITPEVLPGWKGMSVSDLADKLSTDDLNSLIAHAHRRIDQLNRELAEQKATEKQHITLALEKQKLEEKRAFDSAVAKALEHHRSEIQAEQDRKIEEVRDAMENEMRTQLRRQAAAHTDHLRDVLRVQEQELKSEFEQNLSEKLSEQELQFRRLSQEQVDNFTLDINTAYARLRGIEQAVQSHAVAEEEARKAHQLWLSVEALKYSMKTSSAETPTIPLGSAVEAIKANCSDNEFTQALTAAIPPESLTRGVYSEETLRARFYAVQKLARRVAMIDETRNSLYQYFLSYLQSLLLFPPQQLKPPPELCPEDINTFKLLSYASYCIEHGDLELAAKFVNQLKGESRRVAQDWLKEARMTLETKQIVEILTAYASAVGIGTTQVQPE
Experiment: proximity ligation; Duolink in situ PLA in fixed (4% paraformaldehyde), permeabilised (0.2% Triton X-100) HeLa cells, with and without CCCP for 3 h; endogenous proteins detected with pairs of primary antibodies; PLA dots per cell counted

B1: SAM50 (protein, UniProt Q9Y512 1-469)
chain: MGTVHARSLEPLPSSGPDFGGLGEEAEFVEVEPEAKQEILENKDVVVQHVHFDGLGRTKDDIIICEIGDVFKAKNLIEVMRKSHEAREKLLRLGIFRQVDVLIDTCQGDDALPNGLDVTFEVTELRRLTGSYNTMVGNNEGSMVLGLKLPNLLGRAEKVTFQFSYGTKETSYGLSFFKPRPGNFERNFSVNLYKVTGQFPWSSLRETDRGMSAEYSFPIWKTSHTVKWEGVWRELGCLSRTASFAVRKESGHSLKSSLSHAMVIDSRNSSILPRRGALLKVNQELAGYTGGDVSFIKEDFELQLNKQLIFDSVFSASFWGGMLVPIGDKPSSIADRFYLGGPTSIRGFSMHSIGPQSEGDYLGGEAYWAGGLHLYTPLPFRPGQGGFGELFRTHFFLNAGNLCNLNYGEGPKAHIRKLAECIRWSYGAGIVLRLGNIARLELNYCVPMGVQTGDRICDGVQFGAGIRFL
binding: binds

From article PMC10904832
